# PubChem BioAssay AID1259308, NCATS | 2017
# Purpose: 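Knock-downs that increase output of a recombinant reporter protein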 (primary screen)
# Cells: human HEK293 embryonic kidney cells stably expressing firefly luciferase (HEK-CMV-Luc2-Hygro)
# Reagent: single siRNA against human genes, 0.8 pmol siRNA per well
# Time to read-out: 72 h
# Detection: 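Luciferase light (ONE-Glo) measured on one replicate plate set and viability (CellTiter-Glo) on the other, scaled to a negative control siRNA, with robust z-scores and luciferase per cell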
# Reading the numbers: total luciferase, z-score and total luciferase, % of control: higher = more reporter protein produced; luciferase per cell, z-score: higher = more reporter output per viable cell; viable cells, % of control: higher = more viable cells
# Hit rule: 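An siRNA counts as active if its total luciferase robust z-score exceeds 3; genes with two or more such siRNAs out of three were retested with fresh siRNAs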
# Calls: active = raised luciferase; inactive = no rise
# Here is one part, drawn at random, of about 59,000 deposited reagents. About 1,510 of them (2.6%) count as active. 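Calls use total luciferase alone and ignore viability, so some active siRNAs may act by altering cell number.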 Reagents against one gene are numbered here.
"total luciferase, z-score","total luciferase, % of control","luciferase per cell, z-score","viable cells, % of control",outcome,gene knocked down,reagent no.
0.52,92.2,0.298,95.3,inactive,INPP4B (GeneID 8821),1
1.34,109,0.917,95.2,inactive,INPP4B (GeneID 8821),2
-0.347,75,0.0779,82.1,inactive,INPP4B (GeneID 8821),3
0.593,93.7,0.112,102,inactive,WIPI2 (GeneID 26100),1
-0.249,76.9,-0.17,89.9,inactive,WIPI2 (GeneID 26100),2
-1.72,47.8,-1.54,80.1,inactive,WIPI2 (GeneID 26100),3
0.0298,82.5,-0.11,94.9,inactive,BET1 (GeneID 10282),1
0.775,97.3,0.853,86.9,inactive,BET1 (GeneID 10282),2
-0.641,69.1,-0.199,81.4,inactive,BET1 (GeneID 10282),3
-0.711,67.7,0.264,70.6,inactive,VMA22 (GeneID 84317),1
0.144,84.7,0.328,86.9,inactive,VMA22 (GeneID 84317),2
-0.521,71.5,-0.377,88.3,inactive,VMA22 (GeneID 84317),3
-0.485,72.2,-0.4,89.7,inactive,SMAP1 (GeneID 60682),1
-0.458,72.8,0.0581,80.1,inactive,SMAP1 (GeneID 60682),2
-1.28,56.3,-1.86,103,inactive,SMAP1 (GeneID 60682),3
3.58,153,4.77,48.8,active,SF3A1 (GeneID 10291),1
2.32,128,4.58,42.8,inactive,SF3A1 (GeneID 10291),2
0.0376,82.6,2.56,47.1,inactive,SF3A1 (GeneID 10291),3
0.361,89.1,0.945,77.6,inactive,MGC70870 (GeneID 403340),1
-0.121,79.5,0.599,75.9,inactive,MGC70870 (GeneID 403340),2
0.931,100,0.516,97.9,inactive,MGC70870 (GeneID 403340),3
1.35,109,1.21,88.4,inactive,CYGB (GeneID 114757),1
0.77,97.2,0.937,84.9,inactive,CYGB (GeneID 114757),2
0.0515,82.9,-0.492,105,inactive,CYGB (GeneID 114757),3
-0.73,67.4,-0.855,94.3,inactive,NUDT13 (GeneID 25961),1
-1.19,58.3,-0.495,74.2,inactive,NUDT13 (GeneID 25961),2
-1.21,57.7,-1.06,85.2,inactive,NUDT13 (GeneID 25961),3
0.471,91.2,0.662,85.7,inactive,ZNF8 (GeneID 7554),1
0.911,100,0.544,96.8,inactive,ZNF8 (GeneID 7554),2
0.293,87.7,0.295,90.7,inactive,ZNF8 (GeneID 7554),3
-0.207,77.8,0.355,79.2,inactive,GPAM (GeneID 57678),1
2.68,135,1.35,106,inactive,GPAM (GeneID 57678),2
-0.759,66.8,-0.383,82.6,inactive,GPAM (GeneID 57678),3
-0.144,79,-0.167,92.3,inactive,PRSS12 (GeneID 8492),1
0.00312,81.9,-0.416,102,inactive,PRSS12 (GeneID 8492),2
0.705,95.9,0.496,94.1,inactive,PRSS12 (GeneID 8492),3
0.0824,83.5,0.785,75.9,inactive,RBX1 (GeneID 9978),1
-0.663,68.7,-0.104,78.9,inactive,RBX1 (GeneID 9978),2
1.4,110,1.83,75.8,inactive,RBX1 (GeneID 9978),3
1.11,104,1.41,80.1,inactive,KLC3 (GeneID 147700),1
0.372,89.3,0.0412,98.7,inactive,KLC3 (GeneID 147700),2
-1.52,51.7,-1.43,84.2,inactive,KLC3 (GeneID 147700),3
-0.00374,81.8,-0.399,102,inactive,SLIRP-OT1 (GeneID 283579),1
1.74,116,1.2,95,inactive,SLIRP-OT1 (GeneID 283579),2
-0.258,76.8,-0.436,96.2,inactive,SLIRP-OT1 (GeneID 283579),3
-0.604,69.9,-1.19,107,inactive,AP1S3 (GeneID 130340),1
2.06,123,1.35,96.2,inactive,AP1S3 (GeneID 130340),2
-0.266,76.6,-0.526,98.3,inactive,AP1S3 (GeneID 130340),3
1.68,115,1.94,77.2,inactive,PRR33 (GeneID 102724536),1
-1.18,58.3,-1.81,105,inactive,PRR33 (GeneID 102724536),2
1.71,116,0.589,111,inactive,PRR33 (GeneID 102724536),3
0.217,86.2,-0.464,109,inactive,OAS2 (GeneID 4939),1
-0.676,68.4,-0.308,82.9,inactive,OAS2 (GeneID 4939),2
3.92,160,2.88,83.6,active,OAS2 (GeneID 4939),3
3.53,152,2.1,97.9,active,OR13C4 (GeneID 138804),1
0.159,85,0.0271,94.4,inactive,OR13C4 (GeneID 138804),2
1.4,110,1.83,75.7,inactive,OR13C4 (GeneID 138804),3
